Assay results reported in article PMC8123387.
These are yes or no findings as the source states them, for the method shown. In cells and extracts the contact can be indirect. A yes stands for co-enrichment or nearness to the bait. Other partners may have been found.

Amino acid sequences for entries named in this document (tags omitted). Residues count along the entry.
UniProt Q08722, residues 19-323: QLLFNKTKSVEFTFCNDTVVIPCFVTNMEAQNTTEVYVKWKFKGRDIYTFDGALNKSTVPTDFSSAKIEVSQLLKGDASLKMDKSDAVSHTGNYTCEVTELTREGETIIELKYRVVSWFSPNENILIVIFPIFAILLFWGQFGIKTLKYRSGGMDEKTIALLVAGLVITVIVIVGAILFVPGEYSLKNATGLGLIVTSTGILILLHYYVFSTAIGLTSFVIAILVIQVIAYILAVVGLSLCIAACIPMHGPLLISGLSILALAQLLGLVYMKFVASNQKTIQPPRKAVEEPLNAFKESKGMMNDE
UniProt Q9UMX0: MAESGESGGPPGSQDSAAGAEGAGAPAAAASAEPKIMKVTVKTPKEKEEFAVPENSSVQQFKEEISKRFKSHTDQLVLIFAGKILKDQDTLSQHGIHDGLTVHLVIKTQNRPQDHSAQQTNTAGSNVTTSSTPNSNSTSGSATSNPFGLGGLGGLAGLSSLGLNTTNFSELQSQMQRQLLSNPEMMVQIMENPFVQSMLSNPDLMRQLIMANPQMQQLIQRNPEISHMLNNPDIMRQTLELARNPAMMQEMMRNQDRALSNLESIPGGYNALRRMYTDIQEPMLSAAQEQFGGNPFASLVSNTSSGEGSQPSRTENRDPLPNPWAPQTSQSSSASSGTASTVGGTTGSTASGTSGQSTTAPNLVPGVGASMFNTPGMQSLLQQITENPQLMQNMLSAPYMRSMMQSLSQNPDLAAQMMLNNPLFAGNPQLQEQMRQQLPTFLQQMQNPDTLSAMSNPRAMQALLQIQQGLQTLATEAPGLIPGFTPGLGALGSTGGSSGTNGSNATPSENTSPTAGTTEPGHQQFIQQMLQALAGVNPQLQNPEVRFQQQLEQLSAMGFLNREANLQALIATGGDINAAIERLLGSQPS
UniProt O14980: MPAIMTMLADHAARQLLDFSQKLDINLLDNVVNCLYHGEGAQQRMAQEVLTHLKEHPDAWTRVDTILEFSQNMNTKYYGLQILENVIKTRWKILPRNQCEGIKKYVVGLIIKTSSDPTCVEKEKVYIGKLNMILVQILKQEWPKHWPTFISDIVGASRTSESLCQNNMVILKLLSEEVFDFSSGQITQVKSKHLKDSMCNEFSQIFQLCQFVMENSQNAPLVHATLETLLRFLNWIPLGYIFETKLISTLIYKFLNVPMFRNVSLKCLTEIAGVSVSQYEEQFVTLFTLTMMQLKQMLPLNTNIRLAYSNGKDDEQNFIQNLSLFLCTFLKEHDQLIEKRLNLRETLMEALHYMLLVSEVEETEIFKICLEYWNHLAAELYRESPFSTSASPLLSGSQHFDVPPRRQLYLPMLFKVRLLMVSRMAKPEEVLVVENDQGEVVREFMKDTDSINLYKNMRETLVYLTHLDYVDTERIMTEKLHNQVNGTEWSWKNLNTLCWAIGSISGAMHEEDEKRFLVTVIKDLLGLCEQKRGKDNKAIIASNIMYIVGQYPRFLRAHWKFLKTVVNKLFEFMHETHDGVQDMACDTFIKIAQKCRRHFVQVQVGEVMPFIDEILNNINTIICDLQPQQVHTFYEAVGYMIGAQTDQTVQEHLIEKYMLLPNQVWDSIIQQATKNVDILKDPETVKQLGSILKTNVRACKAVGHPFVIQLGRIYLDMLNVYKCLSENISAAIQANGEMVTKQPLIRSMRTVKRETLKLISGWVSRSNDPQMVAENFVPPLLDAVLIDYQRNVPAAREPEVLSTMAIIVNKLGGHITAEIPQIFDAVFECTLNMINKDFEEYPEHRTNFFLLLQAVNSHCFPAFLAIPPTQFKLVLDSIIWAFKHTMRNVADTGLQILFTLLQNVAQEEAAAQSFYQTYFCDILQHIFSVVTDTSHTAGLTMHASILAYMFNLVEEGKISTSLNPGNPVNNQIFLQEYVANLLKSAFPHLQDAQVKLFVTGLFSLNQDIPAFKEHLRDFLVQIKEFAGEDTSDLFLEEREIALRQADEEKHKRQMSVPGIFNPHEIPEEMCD

Assays:
[1] = target: CD47 (human (endogenous in T cells)) (UniProt Q08722); assay: affinity purification with mass spectrometry + co-IP; T cells; identified by mass spectrometry and confirmed by co-immunoprecipitation; interaction of CD47 with exportin-1 inhibited by leptomycin B
[2] = target: ubiquilin-1 (human (endogenous in T cells)) (UniProt Q9UMX0); assay: as above

binding [1]: binds | binding [2]: binds
Substance: exportin-1 (from UniProt O14980 1-1071)
